PubChem BioAssay AID1259424, University of Nebraska Medical Center – 2018

- Test: 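Find knockdowns that reproduce the expression shifts seen after KSR1 loss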 (primary screen)
- Cell system: human HCT116 colon cancer cells
- Knock-down reagent: siRNA pool against human genes, 50 nM
- Measurement: 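Six signature mRNAs by branched-DNA multiplex assay, scaled to two housekeeping genes and non-targeting median, log2; matched to mean KSR1 knockdown profile by Pearson correlation and euclidean distance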
- Reading the numbers: mean correlation with KSR1 profile: higher = expression change more like KSR1 knockdown
Here is one part, drawn at random, of about 14,000 reagents. 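Higher correlation or smaller distance means closer resemblance to KSR1 loss; control wells, including KSR1 knockdowns, recur on many plates.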 Further read-outs or replicates are left out here. Reagent sequences are not shown. The record does not give: the time to read-out.

no.	target gene	mean correlation with KSR1 profile
1	POU4F2	-0.78
2	FERMT1	-0.659
3	FHOD3	0.703
4	BLTP3A	-0.157
5	MTFR1L	-0.805
6	ATG13	-0.817
7	MFSD1	0.588
8	ETV7	0.555
9	CYB5B	0.344
10	SERF1B	-0.296
11	CCDC142	0.878
12	POLR2E	-0.753
13	CYP2C18	-0.423
14	BEX3	-0.303
15	ARID4A	0.627
16	CHST15	0.729
17	HGF	-0.594
18	TPTEP1	-0.122
19	BLVRB	-0.475
20	LIM2	-0.227
21	FBP1	0.612
22	ZDHHC12	0.535
23	MTRF1	0.175
24	LRRC23	-0.198
25	GPHN	0.523
26	PPP1R8	-0.753
27	RPS5	-0.0663
28	PMS2P2	-0.546
29	MYO1F	0.215
30	NSD1	-0.131
31	VTA1	-0.556

8 entries from above, arranged by “mean correlation with KSR1 profile”, descending:
target gene	mean correlation with KSR1 profile
CCDC142	0.878
CHST15	0.729
ARID4A	0.627
SERF1B	-0.296
BEX3	-0.303
CYP2C18	-0.423
HGF	-0.594
POLR2E	-0.753

Further records follow:
no.	target gene	mean correlation with KSR1 profile
32	ATP5MF	0.0183
33	PSMD6	0.175
34	IL17A	0.118
35	KITLG	0.0191
36	GTF2H3	-0.177
37	CACNB1	0.158
38	PLEKHO2	0.539
39	DNAJA4	-0.386
40	MARK2	-0.0674
41	MBIP	0.676
42	GCAT	-0.575
43	TH	0.821
44	CRIP1	0.928
45	MED13L	0.302
46	UBXN1	0.402
47	FGF6	-0.452
48	RNF128	0.849
49	ZNF576	0.508
50	ST7L	0.444
